Reference: PMC12192654

By UniProt entry, the sequences of proteins in these tests, tags left out.
UniProt Q00539: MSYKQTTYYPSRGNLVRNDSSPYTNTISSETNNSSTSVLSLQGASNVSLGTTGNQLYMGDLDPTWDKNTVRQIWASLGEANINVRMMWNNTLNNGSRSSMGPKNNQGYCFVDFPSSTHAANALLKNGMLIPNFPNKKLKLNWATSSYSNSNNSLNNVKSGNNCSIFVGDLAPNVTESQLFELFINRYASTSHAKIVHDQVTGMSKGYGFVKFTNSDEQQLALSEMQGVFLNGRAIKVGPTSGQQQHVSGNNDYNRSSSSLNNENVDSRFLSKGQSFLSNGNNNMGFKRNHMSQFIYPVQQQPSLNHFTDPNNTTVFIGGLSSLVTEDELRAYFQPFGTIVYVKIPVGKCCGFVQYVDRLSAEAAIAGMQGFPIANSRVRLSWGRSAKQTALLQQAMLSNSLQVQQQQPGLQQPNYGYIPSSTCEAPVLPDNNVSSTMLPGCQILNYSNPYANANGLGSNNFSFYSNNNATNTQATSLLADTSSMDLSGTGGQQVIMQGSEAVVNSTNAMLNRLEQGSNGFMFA
UniProt Q07508: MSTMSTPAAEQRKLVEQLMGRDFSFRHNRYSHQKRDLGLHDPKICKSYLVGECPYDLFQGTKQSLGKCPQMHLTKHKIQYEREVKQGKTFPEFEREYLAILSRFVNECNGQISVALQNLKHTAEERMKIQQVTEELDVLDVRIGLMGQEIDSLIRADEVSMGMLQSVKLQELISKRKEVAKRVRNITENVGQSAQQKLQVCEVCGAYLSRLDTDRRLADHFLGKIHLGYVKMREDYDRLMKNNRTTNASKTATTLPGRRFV
UniProt P53207: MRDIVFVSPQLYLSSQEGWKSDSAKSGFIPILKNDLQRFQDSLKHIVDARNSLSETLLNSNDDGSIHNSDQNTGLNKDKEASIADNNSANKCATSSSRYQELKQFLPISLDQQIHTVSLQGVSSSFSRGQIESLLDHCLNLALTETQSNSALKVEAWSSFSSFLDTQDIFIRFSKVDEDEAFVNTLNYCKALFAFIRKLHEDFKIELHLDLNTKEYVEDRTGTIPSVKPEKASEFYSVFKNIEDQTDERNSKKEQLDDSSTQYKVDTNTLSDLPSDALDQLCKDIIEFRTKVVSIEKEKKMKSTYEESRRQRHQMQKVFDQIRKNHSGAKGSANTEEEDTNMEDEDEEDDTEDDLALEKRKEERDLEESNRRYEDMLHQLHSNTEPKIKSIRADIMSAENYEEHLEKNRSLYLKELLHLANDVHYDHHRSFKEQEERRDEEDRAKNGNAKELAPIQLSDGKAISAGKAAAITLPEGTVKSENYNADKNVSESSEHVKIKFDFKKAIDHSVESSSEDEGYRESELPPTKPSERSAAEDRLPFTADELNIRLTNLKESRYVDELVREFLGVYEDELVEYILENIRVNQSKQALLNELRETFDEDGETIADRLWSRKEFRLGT

target: Nam8-TAP (TAP-tagged Nam8p) (S. cerevisiae) (UniProt Q00539); experiment: affinity purification with mass spectrometry; tandem affinity purification of TAP-tagged Swt21p or Nam8p from whole-cell yeast extracts: IgG Sepharose, PreScission elution, calmodulin resin, 300 mM NaCl buffers; eluates identified by mass spectrometry; Nam8-TAP also in the absence of Swt21p

binding	Molecule
binds	Luc7p (from UniProt Q07508 1-261)
binds	Snu71p (from UniProt P53207 1-620)
binds	SmBp (protein, UniProt P40018 1-196) MSKIQVAHSSRLANLIDYKLRVLTQDGRVYIGQLMAFDKHMNLVLNECIEERVPKTQLDKLRPRKDSKDGTTLNIKVEKRVLGLTILRGEQILSTVVEDKPLLSKKERLVRDKKEKKQAQKQTKLRKEKEKKPGKIAKPNTANAKHTSSNSREIAQPSSSRYNGGNDNIGANRSRFNNEAPPQTRKFQPPPGFKRK

These are yes or no findings as the source states them, for the method shown. Binding seen in cells or lysates may run through a third protein. A yes stands for co-enrichment or nearness to the bait. Other partners may have been found. Sequences can lack the tags named with a protein.
